Our source for the log2 fold change values is the supplement of paper PMC10849652.

By UniProt entry, the sequences of proteins in these tests, tags left out. Where a name states a change or a piece, a line headed by the entry shows the natural chain unless it says otherwise.
UniProt Q8N8Q9: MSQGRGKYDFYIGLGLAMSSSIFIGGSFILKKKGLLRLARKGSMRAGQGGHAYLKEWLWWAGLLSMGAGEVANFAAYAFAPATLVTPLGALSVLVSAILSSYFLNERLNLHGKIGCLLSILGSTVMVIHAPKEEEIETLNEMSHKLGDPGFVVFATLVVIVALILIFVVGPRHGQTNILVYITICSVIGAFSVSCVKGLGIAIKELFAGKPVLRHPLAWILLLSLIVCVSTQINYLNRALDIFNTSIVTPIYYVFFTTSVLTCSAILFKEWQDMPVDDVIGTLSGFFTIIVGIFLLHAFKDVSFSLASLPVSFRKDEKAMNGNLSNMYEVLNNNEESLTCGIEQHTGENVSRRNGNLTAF
UniProt Q8TDX7: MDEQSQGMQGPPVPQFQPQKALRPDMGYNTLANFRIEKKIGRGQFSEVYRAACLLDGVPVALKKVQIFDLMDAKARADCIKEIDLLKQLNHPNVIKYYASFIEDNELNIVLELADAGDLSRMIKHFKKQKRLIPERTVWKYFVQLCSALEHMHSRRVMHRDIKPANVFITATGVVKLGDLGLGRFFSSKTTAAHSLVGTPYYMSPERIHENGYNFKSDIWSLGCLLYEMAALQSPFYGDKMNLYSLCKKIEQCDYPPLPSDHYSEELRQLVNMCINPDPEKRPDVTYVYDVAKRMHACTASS
UniProt P35240: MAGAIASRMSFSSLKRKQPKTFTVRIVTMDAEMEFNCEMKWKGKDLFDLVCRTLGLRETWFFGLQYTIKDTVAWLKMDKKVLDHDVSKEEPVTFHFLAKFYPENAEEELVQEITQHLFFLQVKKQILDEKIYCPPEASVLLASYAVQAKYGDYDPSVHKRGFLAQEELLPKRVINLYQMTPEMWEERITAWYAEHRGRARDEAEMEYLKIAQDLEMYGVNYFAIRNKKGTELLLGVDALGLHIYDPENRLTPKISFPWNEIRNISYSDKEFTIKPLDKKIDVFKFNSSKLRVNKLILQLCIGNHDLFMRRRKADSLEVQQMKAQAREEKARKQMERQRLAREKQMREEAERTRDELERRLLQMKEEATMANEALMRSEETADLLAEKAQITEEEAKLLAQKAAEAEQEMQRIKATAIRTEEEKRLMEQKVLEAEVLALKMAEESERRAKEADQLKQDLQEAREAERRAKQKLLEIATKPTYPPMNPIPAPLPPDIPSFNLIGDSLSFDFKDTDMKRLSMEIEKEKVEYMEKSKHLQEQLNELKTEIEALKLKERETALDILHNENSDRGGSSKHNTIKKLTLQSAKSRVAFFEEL
UniProt Q9NPE2: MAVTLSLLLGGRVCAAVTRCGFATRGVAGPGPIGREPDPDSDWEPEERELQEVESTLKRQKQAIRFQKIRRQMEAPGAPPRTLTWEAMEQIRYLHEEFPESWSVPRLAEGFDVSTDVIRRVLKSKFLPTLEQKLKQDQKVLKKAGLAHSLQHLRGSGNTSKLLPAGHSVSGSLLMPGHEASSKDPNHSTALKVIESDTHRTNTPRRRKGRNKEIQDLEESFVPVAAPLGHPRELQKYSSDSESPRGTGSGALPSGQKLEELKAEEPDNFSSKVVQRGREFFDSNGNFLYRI
UniProt Q9H9Q4: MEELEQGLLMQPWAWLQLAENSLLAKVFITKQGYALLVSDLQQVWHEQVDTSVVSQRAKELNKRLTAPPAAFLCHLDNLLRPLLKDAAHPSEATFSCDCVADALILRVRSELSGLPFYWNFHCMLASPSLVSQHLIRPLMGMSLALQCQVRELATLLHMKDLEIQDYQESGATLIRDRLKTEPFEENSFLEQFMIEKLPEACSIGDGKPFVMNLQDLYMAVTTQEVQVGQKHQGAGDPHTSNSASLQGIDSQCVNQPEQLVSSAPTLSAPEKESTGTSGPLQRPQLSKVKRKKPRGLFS
UniProt Q9NQR4: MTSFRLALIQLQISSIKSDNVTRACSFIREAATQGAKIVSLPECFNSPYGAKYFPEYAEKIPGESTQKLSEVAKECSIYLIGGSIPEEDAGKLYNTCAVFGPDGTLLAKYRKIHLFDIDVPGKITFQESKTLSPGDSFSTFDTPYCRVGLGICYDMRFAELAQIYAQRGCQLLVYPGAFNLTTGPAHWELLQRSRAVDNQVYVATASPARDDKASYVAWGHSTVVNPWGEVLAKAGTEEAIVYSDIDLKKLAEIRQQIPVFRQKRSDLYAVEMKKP
UniProt Q5JS37: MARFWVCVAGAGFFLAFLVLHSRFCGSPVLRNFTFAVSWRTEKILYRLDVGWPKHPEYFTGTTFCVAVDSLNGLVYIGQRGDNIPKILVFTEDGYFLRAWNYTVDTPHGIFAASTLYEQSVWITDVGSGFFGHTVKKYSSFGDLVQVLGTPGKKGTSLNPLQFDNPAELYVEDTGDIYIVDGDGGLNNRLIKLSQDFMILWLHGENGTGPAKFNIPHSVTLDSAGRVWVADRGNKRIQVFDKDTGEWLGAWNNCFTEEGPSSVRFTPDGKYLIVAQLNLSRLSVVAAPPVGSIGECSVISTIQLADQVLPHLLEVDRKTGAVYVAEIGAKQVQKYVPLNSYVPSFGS
UniProt Q14934: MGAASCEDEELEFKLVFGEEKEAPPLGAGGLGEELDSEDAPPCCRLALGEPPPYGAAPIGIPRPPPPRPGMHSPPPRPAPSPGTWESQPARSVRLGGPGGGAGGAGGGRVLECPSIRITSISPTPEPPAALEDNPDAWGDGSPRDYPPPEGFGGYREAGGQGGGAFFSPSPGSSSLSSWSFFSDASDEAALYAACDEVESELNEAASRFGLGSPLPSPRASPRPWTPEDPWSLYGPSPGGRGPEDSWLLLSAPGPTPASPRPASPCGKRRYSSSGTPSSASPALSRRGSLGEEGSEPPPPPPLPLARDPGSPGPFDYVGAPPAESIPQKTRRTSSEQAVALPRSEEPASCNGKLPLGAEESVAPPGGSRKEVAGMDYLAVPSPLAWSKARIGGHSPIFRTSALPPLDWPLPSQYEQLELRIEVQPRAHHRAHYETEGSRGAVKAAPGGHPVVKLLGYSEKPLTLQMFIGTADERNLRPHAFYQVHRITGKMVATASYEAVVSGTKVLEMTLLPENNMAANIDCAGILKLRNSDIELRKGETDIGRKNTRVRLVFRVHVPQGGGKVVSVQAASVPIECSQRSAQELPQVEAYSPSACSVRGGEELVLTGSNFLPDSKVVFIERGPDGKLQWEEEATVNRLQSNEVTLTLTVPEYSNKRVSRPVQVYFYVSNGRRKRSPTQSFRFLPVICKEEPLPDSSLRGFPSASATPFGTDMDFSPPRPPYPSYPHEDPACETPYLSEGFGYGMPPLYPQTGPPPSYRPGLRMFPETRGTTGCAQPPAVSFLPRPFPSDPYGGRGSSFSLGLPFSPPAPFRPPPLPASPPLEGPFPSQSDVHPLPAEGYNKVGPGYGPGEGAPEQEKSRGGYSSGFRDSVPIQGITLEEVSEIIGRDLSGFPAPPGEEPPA
UniProt P10588: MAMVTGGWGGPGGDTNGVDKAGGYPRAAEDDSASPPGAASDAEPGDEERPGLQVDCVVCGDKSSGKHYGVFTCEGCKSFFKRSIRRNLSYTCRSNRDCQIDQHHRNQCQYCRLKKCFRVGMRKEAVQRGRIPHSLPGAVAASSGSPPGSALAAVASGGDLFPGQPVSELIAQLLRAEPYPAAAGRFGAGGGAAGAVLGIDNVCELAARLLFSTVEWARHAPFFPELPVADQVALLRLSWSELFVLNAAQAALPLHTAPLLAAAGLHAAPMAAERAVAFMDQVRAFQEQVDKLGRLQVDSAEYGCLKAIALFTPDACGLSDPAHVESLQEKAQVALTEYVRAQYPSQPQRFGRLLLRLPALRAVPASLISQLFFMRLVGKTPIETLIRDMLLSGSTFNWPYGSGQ
UniProt Q9BYG3: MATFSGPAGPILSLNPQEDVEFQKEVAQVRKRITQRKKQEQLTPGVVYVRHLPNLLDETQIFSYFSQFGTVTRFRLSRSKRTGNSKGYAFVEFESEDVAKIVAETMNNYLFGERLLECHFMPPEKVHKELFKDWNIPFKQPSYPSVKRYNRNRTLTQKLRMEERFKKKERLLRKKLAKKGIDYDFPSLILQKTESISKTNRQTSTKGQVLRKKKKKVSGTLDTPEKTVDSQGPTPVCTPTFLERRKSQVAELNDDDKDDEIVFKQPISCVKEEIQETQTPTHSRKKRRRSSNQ
UniProt Q9UFN0: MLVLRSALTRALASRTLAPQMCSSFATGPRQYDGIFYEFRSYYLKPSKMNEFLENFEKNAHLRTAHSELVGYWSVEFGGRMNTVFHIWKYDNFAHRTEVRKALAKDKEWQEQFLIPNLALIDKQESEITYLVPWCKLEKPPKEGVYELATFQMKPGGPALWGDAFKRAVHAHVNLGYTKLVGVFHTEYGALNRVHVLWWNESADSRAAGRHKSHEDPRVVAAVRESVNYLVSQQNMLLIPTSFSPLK
UniProt Q6ZNB6: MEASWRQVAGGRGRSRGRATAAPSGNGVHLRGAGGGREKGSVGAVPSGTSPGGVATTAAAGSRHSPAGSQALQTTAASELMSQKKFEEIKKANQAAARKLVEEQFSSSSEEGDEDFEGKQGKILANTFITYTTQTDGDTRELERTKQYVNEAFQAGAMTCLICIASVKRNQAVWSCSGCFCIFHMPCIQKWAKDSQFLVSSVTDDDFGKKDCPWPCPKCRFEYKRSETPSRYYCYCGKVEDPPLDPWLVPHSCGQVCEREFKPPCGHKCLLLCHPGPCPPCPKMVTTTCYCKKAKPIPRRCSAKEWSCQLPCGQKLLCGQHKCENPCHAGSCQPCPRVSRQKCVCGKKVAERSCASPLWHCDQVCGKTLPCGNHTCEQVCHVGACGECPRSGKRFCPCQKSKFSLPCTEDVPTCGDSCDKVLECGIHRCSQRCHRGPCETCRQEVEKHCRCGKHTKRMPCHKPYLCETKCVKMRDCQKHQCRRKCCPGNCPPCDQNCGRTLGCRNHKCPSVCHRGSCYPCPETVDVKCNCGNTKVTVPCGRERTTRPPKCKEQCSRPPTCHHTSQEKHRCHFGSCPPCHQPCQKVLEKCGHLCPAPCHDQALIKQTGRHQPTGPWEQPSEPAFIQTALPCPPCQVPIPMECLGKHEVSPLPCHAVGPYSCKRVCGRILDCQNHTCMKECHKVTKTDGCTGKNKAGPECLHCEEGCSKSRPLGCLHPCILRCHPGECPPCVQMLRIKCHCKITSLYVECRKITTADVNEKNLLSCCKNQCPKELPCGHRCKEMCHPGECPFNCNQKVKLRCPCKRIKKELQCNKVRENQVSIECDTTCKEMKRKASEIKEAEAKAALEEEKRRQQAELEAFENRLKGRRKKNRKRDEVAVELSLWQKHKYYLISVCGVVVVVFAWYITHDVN
UniProt Q92636: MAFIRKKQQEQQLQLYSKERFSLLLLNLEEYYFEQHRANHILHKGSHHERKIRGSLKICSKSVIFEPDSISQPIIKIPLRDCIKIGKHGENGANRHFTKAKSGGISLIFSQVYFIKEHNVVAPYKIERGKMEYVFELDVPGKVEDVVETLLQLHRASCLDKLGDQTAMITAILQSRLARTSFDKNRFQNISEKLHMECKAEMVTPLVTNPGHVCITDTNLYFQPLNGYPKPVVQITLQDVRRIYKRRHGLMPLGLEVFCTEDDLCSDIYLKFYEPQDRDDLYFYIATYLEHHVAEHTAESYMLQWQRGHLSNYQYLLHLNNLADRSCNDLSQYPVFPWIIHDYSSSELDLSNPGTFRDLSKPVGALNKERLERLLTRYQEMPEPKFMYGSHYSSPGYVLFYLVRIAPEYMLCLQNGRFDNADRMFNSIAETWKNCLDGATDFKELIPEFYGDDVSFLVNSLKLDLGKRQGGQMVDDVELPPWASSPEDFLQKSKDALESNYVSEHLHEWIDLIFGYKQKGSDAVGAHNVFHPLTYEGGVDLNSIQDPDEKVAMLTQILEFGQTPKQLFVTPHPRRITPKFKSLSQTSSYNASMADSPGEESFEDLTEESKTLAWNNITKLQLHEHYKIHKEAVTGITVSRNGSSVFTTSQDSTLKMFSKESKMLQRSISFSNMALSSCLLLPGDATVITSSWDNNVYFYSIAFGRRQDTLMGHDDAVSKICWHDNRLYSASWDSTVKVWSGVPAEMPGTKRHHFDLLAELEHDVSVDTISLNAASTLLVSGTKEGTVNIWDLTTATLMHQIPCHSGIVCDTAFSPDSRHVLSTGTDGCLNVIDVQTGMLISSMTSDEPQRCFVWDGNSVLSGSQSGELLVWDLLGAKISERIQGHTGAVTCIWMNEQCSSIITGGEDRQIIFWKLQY

This is one part of the list.

Compound in this assay: c1cn2cc(-c3ccc4cn[nH]c4c3)nc(Nc3ccc(N4CCOCC4)cc3)c2n1 [entospletinib]
Briefly: log2 fold change, soluble protein after heating vs DMSO (PISA); higher = thermal stabilisation; K562 cells, 10 uM, 30 min; active = over 0.2 and 3.5 SD of the protein, either way, in both replicates (recomputed). In short, it runs like this: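 Soluble protein was defined as the supernatant after 21,000xg for 90 min. It came from K562 cells at 2×10^6 cells/mL given 10 μM compound for 30 min, heated in aliquots for 3 min across 48°C-58°C, pooled, and extracted in PBS with 0.5% NP-40 at 4°C, and was quantified by TMTpro 16plex LC-MS/MS with equalised channel sums. Thermal stability against control samples, from duplicates, is reported as log2 fold change.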
With NIPA2 (UniProt Q8N8Q9), the log2 fold change was inactive: 0.032.

Consider NEK7 (UniProt Q8TDX7), for which the log2 fold change was inactive: -0.034.

For NF2 (UniProt P35240), the log2 fold change is inactive: 0.023.

Take NGRN (UniProt Q9NPE2): the log2 fold change is inactive: 0.

In the case of NHEJ1 (UniProt Q9H9Q4), the log2 fold change is inactive: 0.024.

As to NIT2 (UniProt Q9NQR4), the log2 fold change is inactive: 0.

Take NHLRC3 (UniProt Q5JS37): the log2 fold change is inactive: 0.037.

With NFATC4 isoform 2 (UniProt Q14934), the log2 fold change was inactive: -0.117.

For the target NR2F6 (UniProt P10588), the log2 fold change is inactive: -0.082.

For NIFK (UniProt Q9BYG3), the log2 fold change is inactive: -0.03.

On to NIPBL (UniProt Q6KC79), for which the log2 fold change is inactive: 0.057.

For the target NIPSNAP3A (UniProt Q9UFN0), the log2 fold change is inactive: -0.051.

As for NFXL1 (UniProt Q6ZNB6), the log2 fold change is inactive: -0.014.

NSMAF (UniProt Q92636): the log2 fold change is inactive: 0.017.
